# PubChem BioAssay AID1053208 – Peter MacCallum Cancer Centre | 2014
# Test: 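Genes whose silencing cuts survival of bone tumour cells only with doxorubicin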 (primary screen)
# Cell system: mouse osteosarcoma cells, early-passage culture from an engineered mouse model of fibroblastic bone tumour
# Reagents: siRNA pool against mouse genes, 40 nM
# Timing: about 120 h (48 h before drug, then 72 h with drug)
# Conditions: doxorubicin 100 nM for 72 h, roughly 30-40% inhibitory dose
# Read-out: 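Viability read as ATP luminescence after 72 h of 100 nM doxorubicin or none, duplicate wells averaged, scaled to non-targeting siRNA, then expressed as robust z-scores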
# Direction: viability z-score with doxorubicin and doxorubicin viability vs non-targeting: higher = more viable cells under doxorubicin; viability z-score without drug: higher = more viable cells with knock-down alone; z-score of drug to no-drug ratio: higher = less drug sensitisation by knock-down
# Active means: 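a pool counts as active when its viability z-score with doxorubicin is -2 or below and its z-score without drug lies between -2 and 2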
# The deposit covers about 17,000 reagents; shown is a part drawn at random. 788 of them (4.7%) count as active. 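Calls rest on z-score classes alone; an extra cut-off of viability at most 70% of control was not applied to them.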 The numbers tell different reagents against one gene apart.
target gene,reagent no.,combined z-score class,viability z-score with doxorubicin,viability z-score without drug,z-score of drug to no-drug ratio,doxorubicin viability vs non-targeting,Call
Cars1 (GeneID 27267),1,no change with or without drug,-1.69,-1.01,-1.01,0.79,inactive
Nol11 (GeneID 68979),1,low cell count with and without drug,-3.37,-5.56,0.56,0.64,inactive
Galnt17 (GeneID 212996),1,no change with or without drug,0,-0.67,0.56,0.94,inactive
Dusp26 (GeneID 66959),1,no change with or without drug,0.67,0.17,0.67,1,inactive
Cpd (GeneID 12874),1,no change with or without drug,1.57,0.17,1.69,1.08,inactive
Marveld1 (GeneID 277010),1,low cell count with doxorubicin only,-3.15,-1.85,-2.14,0.66,active
Ark2n (GeneID 212163),1,no change with or without drug,0.45,1.18,-0.22,0.98,inactive
Eef1akmt1 (GeneID 68043),1,high cell count with and without drug,2.02,2.53,0.45,1.12,inactive
Gphn (GeneID 268566),1,no change with or without drug,1.35,-0.84,2.25,1.06,inactive
Mrpl35 (GeneID 66223),1,no change with or without drug,0.34,-0.34,0.67,0.97,inactive
Or2b28 (GeneID 258526),1,no change with or without drug,-0.79,-1.52,0.34,0.87,inactive
Dhcr7 (GeneID 13360),1,no change with or without drug,0,-0.17,0.22,0.94,inactive
Tacc2 (GeneID 57752),1,no change with or without drug,0.22,-0.17,0.45,0.96,inactive
Wnt9a (GeneID 216795),1,no change with or without drug,0.79,-0.84,1.57,1.01,inactive
Vmn1r211 (GeneID 171277),1,no change with or without drug,0.45,0.17,0.45,0.98,inactive
Itm2c (GeneID 64294),1,no change with or without drug,-1.91,-0.84,-1.35,0.77,inactive
Aebp2 (GeneID 11569),1,no change with or without drug,0,-0.67,0.56,0.94,inactive
Cdk8 (GeneID 264064),1,low cell count without drug only,-0.45,-2.19,1.35,0.9,inactive
Il1a (GeneID 16175),1,no change with or without drug,0.67,-0.34,1.12,1,inactive
Egfbp2 (GeneID 13647),1,no change with or without drug,1.57,1.18,0.9,1.08,inactive
Eif4a2 (GeneID 13682),1,no change with or without drug,-0.9,0,-0.79,0.86,inactive
Fech (GeneID 14151),1,no change with or without drug,0,-1.18,1.01,0.94,inactive
Frs3 (GeneID 107971),1,no change with or without drug,-1.35,-1.18,-0.56,0.82,inactive
Isoc2b (GeneID 67441),1,no change with or without drug,0.11,-1.52,1.35,0.95,inactive
Txnl4b (GeneID 234723),1,no change with or without drug,-1.01,-0.17,-0.9,0.85,inactive
S100b (GeneID 20203),1,no change with or without drug,-0.22,0.17,-0.22,0.92,inactive
Or2w4 (GeneID 258739),1,no change with or without drug,0.34,0.17,0.34,0.97,inactive
Mcm6 (GeneID 17219),1,low cell count without drug only,0.34,-2.19,2.25,0.97,inactive
Psors1c2 (GeneID 57390),1,high cell count with and without drug,4.95,2.7,2.92,1.38,inactive
Ildr1 (GeneID 106347),1,no change with or without drug,0.45,0.84,0,0.98,inactive
Vmn1r-ps103 (GeneID 171245),1,high cell count with doxorubicin only,2.59,1.85,1.35,1.17,inactive
Cd2ap (GeneID 12488),1,no change with or without drug,1.91,0.84,1.46,1.11,inactive
Msh3 (GeneID 17686),1,no change with or without drug,-0.9,-1.35,0.11,0.86,inactive
A830018L16Rik (GeneID 320492),1,no change with or without drug,0.11,0.67,-0.22,0.95,inactive
Apoc1 (GeneID 11812),1,no change with or without drug,0.67,0,0.79,1,inactive
Slc10a4 (GeneID 231290),1,no change with or without drug,-0.45,-1.85,1.01,0.9,inactive
Habp2 (GeneID 226243),1,no change with or without drug,0.22,-0.34,0.56,0.96,inactive
Tmem201 (GeneID 230917),1,no change with or without drug,-0.45,0.34,-0.56,0.9,inactive
Bsdc1 (GeneID 100383),1,no change with or without drug,1.35,1.52,0.45,1.06,inactive
Pknox1 (GeneID 18771),1,no change with or without drug,0.9,0.67,0.56,1.02,inactive
Chil4 (GeneID 104183),1,no change with or without drug,-0.67,0,-0.56,0.88,inactive
Slc25a17 (GeneID 20524),1,no change with or without drug,-0.45,0.51,-0.67,0.9,inactive
Slc25a17 (GeneID 20524),2,no change with or without drug,0.45,-0.34,0.79,0.98,inactive
Rfxank (GeneID 19727),1,no change with or without drug,0.9,-1.52,2.36,1.02,inactive
Sell (GeneID 20343),1,no change with or without drug,0,1.01,-0.56,0.94,inactive
Prps1 (GeneID 19139),1,no change with or without drug,-0.45,-0.51,0,0.9,inactive
Smad5 (GeneID 17129),1,no change with or without drug,1.35,-0.84,2.25,1.06,inactive
Smarca2 (GeneID 67155),1,no change with or without drug,-0.56,0.51,-0.79,0.89,inactive
Zfpm1 (GeneID 22761),1,high cell count with and without drug,2.36,2.19,0.9,1.15,inactive
Depdc7 (GeneID 211896),1,no change with or without drug,0,-0.51,0.45,0.94,inactive
